Measured values from article PMC6294250.
No constants are given. Whether binding was seen depends on the method and setting. Some entries that bind do so weakly or less than the wild type.

The chains behind the UniProt entries cited, without tags or fusion partners.
UniProt O80501: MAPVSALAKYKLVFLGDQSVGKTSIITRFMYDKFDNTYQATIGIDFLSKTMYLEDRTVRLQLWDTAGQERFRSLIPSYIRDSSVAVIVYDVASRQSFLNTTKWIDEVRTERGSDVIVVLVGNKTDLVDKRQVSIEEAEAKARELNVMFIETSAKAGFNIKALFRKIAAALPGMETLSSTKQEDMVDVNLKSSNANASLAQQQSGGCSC

Biological target: Rab6 (yeast two-hybrid bait) (Arabidopsis) (UniProt O80501)
Test: two-hybrid; direct assay, Matchmaker LexA system, bait in pGilda, prey in pB42AD-GW, co-transformed into yeast strain EGY48; β-galactosidase assay, plates after 3 days at 28 °C

Row | binding | Binder
1 | binds | N-terminal cytosolic domain of YIP4B (aa 1-143) (domain or fragment, UniProt Q93VH1 1-143) MSHNDTIPLYQSSQSDIDEIENMMNDSFQSGPGTVLPARPPSPIRPSIPVSSSPFVQSNLPPLPPSSSSSTQKVMPVPAPPPLPSAGNEGNKSIGGSGFGSPPNTLTEPVWDTVKRDLSRIVSNLKLVVFPNPYREDPGKALR
2 | binds | N-terminal cytosolic domain of YIP4A (aa 1-140) (domain or fragment, UniProt O64614 1-140) MSQGDTVPLHPSSQSDIDEIENLINESVQSGPGTVLAARPPSPTRPSIPVSSSSSSSPFMQSNLPPLHPSSSAQKVTHVPVPPPLPAVSNSSNFQGASAFGSPPNTLTEPVWDTVKRDLSRIVSNLKLVVFPNPYREDPG
